Laboratory results taken from publication PMC2412851.
Results are given in words; binding and its absence hold for the method and conditions named. Binding seen in cells or lysates may run through a third protein. Some entries that bind do so weakly or less than the wild type. Sequences can lack the tags named with a protein.

Sequences of proteins named here, by UniProt entry; tags and fusion partners are left off. Residues count along the entry.
UniProt P27467, residues 19-352: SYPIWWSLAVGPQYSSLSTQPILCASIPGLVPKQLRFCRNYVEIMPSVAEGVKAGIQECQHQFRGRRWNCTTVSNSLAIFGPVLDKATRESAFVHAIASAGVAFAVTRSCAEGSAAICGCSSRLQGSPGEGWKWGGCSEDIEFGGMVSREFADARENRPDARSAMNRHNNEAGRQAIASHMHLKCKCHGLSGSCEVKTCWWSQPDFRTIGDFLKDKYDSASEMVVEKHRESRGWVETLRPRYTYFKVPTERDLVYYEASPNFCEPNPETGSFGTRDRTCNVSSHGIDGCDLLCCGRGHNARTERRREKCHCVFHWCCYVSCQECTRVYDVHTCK

Target: T1, SFRP-4(HA tagged) (rat) (UniProt Q9JLS4)
T1 sequence: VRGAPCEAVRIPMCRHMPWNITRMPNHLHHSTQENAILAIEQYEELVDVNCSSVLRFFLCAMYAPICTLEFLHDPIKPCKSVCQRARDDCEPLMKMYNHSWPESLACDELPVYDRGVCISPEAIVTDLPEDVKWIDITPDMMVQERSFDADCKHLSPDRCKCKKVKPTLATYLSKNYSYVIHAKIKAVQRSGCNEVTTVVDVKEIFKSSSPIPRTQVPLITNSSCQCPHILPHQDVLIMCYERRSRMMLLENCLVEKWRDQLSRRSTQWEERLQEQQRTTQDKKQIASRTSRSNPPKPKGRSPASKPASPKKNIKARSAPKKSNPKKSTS
Assay: co-IP; conditioned medium of HEK293 SFRP-4(HA tagged) cells treated with 5 μl/ml partially-purified Wnt-3a for 4 hours, mixed 1:1 with Immunoprecipitation Buffer (PBS without Ca2+/Mg2+, 0.25% Triton X-100); rabbit anti-HA antibody, 4°C, protein G Sepharose; blot with mouse anti-HA, re-probed with anti-Wnt-3a; only the binder purified

- binding: binds
Substance: Wnt-3a (from UniProt P27467 19-352) (ligand)
